Reference: PubChem BioAssay AID1259425 (University of Nebraska Medical Center, 2018)
The whole screen tested about 14,000 reagents; below is a part drawn at random. Some reagents were tested in more than one well and are listed for each. Reagent sequences are not shown. The record does not give: the time to read-out.

Purpose: 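Find knockdowns that reproduce the gene expression pattern seen when KSR1 is lost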 (primary screen)
Cell system: HCT116 human colon cancer cells
Reagents: siRNA pool against human genes, 50 nM siRNA
Detection: 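After 50 nM siRNA pool, branched-DNA assay measures six marker transcripts per well, minus blank, normalised to the geometric mean of two housekeeping transcripts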
Direction: BNIP3L mRNA: higher = more BNIP3L transcript after knockdown; NDRG1 mRNA: higher = more NDRG1 transcript after knockdown; BNIP3 mRNA: higher = more BNIP3 transcript after knockdown; ALDOC mRNA: higher = more ALDOC transcript after knockdown; ACSL5 mRNA: higher = more ACSL5 transcript after knockdown

The first 5 records as a preview:
Gene | BNIP3L mRNA, set 1 | NDRG1 mRNA, set 1 | BNIP3 mRNA, set 1 | ALDOC mRNA, set 1 | ACSL5 mRNA, set 1
TPT1P8 | 0.0673 | 0.179 | 0.334 | 0.021 | 0.21
ST8SIA2 | 0.143 | 0.445 | 0.258 | 0.0339 | 0.17
GRK6 | 0.146 | 0.29 | 0.25 | 0.0206 | 0.223
GRK6 | 0.132 | 0.221 | 0.284 | 0.00497 | 0.526
DUSP5 | 0.192 | 0.159 | 0.374 | 0.00653 | 0.13

Results, repeating the preview:
Gene | BNIP3L mRNA, set 1 | NDRG1 mRNA, set 1 | BNIP3 mRNA, set 1 | ALDOC mRNA, set 1 | ACSL5 mRNA, set 1
TPT1P8 | 0.0673 | 0.179 | 0.334 | 0.021 | 0.21
ST8SIA2 | 0.143 | 0.445 | 0.258 | 0.0339 | 0.17
GRK6 | 0.146 | 0.29 | 0.25 | 0.0206 | 0.223
GRK6 | 0.132 | 0.221 | 0.284 | 0.00497 | 0.526
DUSP5 | 0.192 | 0.159 | 0.374 | 0.00653 | 0.13
TRAPPC3 | 0.116 | 0.139 | 0.393 | 0.019 | 0.141
MFAP3 | 0.0673 | 0.134 | 0.246 | 0.0131 | 0.143
PYY | 0.1 | 0.164 | 0.419 | 0.0314 | 0.183
TXN2 | 0.225 | 0.445 | 0.516 | 0.0267 | 0.246
PCBD1 | 0.183 | 0.519 | 0.466 | 0.0525 | 0.297
PARP16 | 0.817 | 1.64 | 1.65 | 0.238 | 0.113
GPR108 | 0.159 | 0.302 | 0.31 | 0.00105 | 0.434
CCSER1 | 0.17 | 0.326 | 0.379 | 0.0296 | 0.179
MUSK | 0.0514 | 0.306 | 0.34 | 0.00635 | 0.381
MBNL2 | 0.0884 | 0.226 | 0.261 | 0.0322 | 0.171
POLRMT | 0.102 | 1.1 | 0.281 | 0.039 | 0.108
SF3B4 | 0.0653 | 0.271 | 0.165 | 0.0385 | 0.0487
PDGFC | 0.0914 | 0.0775 | 0.279 | 0.0235 | 0.218
ZRANB3 | 0.18 | 0.123 | 0.204 | 0.0579 | 0.371
SMAP2 | 0.125 | 0.134 | 0.335 | 0.0143 | 0.037
CCDC136 | 0.206 | 0.209 | 0.384 | 0.0234 | 0.145
HSSUCCDH (retired record) | 0.112 | 0.147 | 0.289 | 0.0174 | 0.162
XRCC6 | 0.0958 | 0.182 | 0.216 | 0.0262 | 0.182
DLAT | 0.0687 | 0.164 | 0.207 | 0.0085 | 0.159
PELI2 | 0.225 | 0.118 | 0.169 | 0.0353 | 0.183
ITIH2 | 0.153 | 0.13 | 0.308 | 0.022 | 0.285
LSG1 | 0.116 | 0.141 | 0.306 | 0.0113 | 0.199
PCDHGA6 | 0.121 | 0.128 | 0.241 | 0.0398 | 0.27
VPREB3 | 0.0853 | 0.315 | 0.188 | 0.0315 | 0.235
HIPK1 | 0.118 | 0.049 | 0.294 | 0.00498 | 0.279
ATRAID | 0.206 | 0.298 | 0.442 | 0.0194 | 0.294
ELMO1 | 0.111 | 0.11 | 0.268 | 0.0254 | 0.171
EPB41L2 | 0.107 | 0.0985 | 0.313 | 0.0709 | 0.227
SV2C | 0.105 | 0.296 | 0.247 | 0.0277 | 0.176
DPPA4 | 0.109 | 0.151 | 0.306 | 0.051 | 0.129
CRYGS | 0.129 | 0.136 | 0.302 | 0.0353 | 0.117
MAPK8IP3 | 0.156 | 0.17 | 0.341 | 0.0147 | 0.286
UBA52 | 0.0749 | 0.212 | 0.2 | 0.00788 | 0.062
GTF2H4 | 0.134 | 0.319 | 0.289 | 0.0161 | 0.214
SLC38A12 | 0.141 | 0.313 | 0.487 | 0.0568 | 0.255
ST3GAL4 | 0.309 | 0.187 | 0.302 | 0.0831 | 0.262
TGFBR3 | 0.0886 | 0.145 | 0.315 | 0.0366 | 0.0962
ARHGEF18 | 0.059 | 0.0845 | 0.203 | 0.018 | 0.125
RP9 | 0.0804 | 0.324 | 0.356 | 0.0308 | 0.17
IL6ST | 0.0746 | 0.0811 | 0.272 | 0.0219 | 0.126
HDAC9 | 0.0438 | 0.0871 | 0.334 | 0.0198 | 0.152
ITGA1 | 0.0976 | 0.191 | 0.255 | 0.0209 | 0.132
SAA4 | 0.102 | 0.131 | 0.305 | 0.0496 | 0.156
RALB | 0.089 | 0.0427 | 0.37 | 0.00513 | 0.0914
MACROH2A2 | 0.144 | 0.712 | 0.4 | 0.0318 | 0.196
